Reference: paper PMC5433425 (PeerJ, 2017)
This continues a long series; more values of the same kind are listed elsewhere. Peptide text beside a SMILES is read from it. * marks the point of attachment. βNA = c1ccc2cc(N*)ccc2c1

Tests used:
Experiment in all cases: EtBr efflux by real-time fluorometry
[1] = test system: E. coli AG100; conditions: 80 µM, + glucose
[2] = test system: E. coli AG100tet; conditions: 80 µM, + glucose
[3] = test system: E. coli AG100A; conditions: 20 µM

For `NC(N)=NCCC[C@H](NC(=O)[C@@H](N)Cc1ccccc1)C(=O)Nc1ccc2ccccc2c1` [PAβN] (H-Phe-Arg-βNA), the “EtBr fluorescence (Channel Cycling A.530/585hp)” value (shortened to “EtBr fluorescence”) ([1]; cycle 4) was 1.534, the “EtBr fluorescence” value ([1]; cycle 5) was 1.49 and the “EtBr fluorescence” value ([1]; cycle 6) was 1.506. The “EtBr fluorescence” value ([1]; cycle 7) was 1.368, the “EtBr fluorescence” value ([1]; cycle 8) was 1.336 and the “EtBr fluorescence” value ([1]; cycle 45) was 1.135. For the same compound, the “EtBr fluorescence” value ([1]; cycle 46) was 1.139, the “EtBr fluorescence” value ([1]; cycle 47) was 1.12 and the “EtBr fluorescence” value ([1]; cycle 48) was 1.128. The “EtBr fluorescence” value ([1]; cycle 49) was 1.1417, the “EtBr fluorescence” value ([1]; cycle 50) was 1.104 and the “EtBr fluorescence” value ([1]; cycle 51) was 1.146. The “EtBr fluorescence” value ([1]; cycle 52) was 1.089, the “EtBr fluorescence” value ([1]; cycle 53) was 1.097 and the “EtBr fluorescence” value ([1]; cycle 54) was 1.147. The “EtBr fluorescence” value ([1]; cycle 55) was 1.091, the “EtBr fluorescence” value ([1]; cycle 56) was 1.125 and the “EtBr fluorescence” value ([1]; cycle 57) was 1.116. The “EtBr fluorescence” value ([1]; cycle 58) was 1.115, the “EtBr fluorescence” value ([1]; cycle 59) was 1.141 and the “EtBr fluorescence” value ([1]; cycle 60) was 1.106. For the same compound, the “EtBr fluorescence” value ([1]; cycle 61) was 1.089, the “Fluorescence raw data, Channel Cycling A.530/585hp” value (from here on “Fluorescence raw data”) ([2]; cycle 4) was 2.196 and the “Fluorescence raw data” value ([2]; cycle 5) was 2.0501. The “Fluorescence raw data” value ([2]; cycle 6) was 1.965, the “Fluorescence raw data” value ([2]; cycle 7) was 1.943 and the “Fluorescence raw data” value ([2]; cycle 8) was 1.848. The “Fluorescence raw data” value ([2]; cycle 45) was 1.532, the “Fluorescence raw data” value ([2]; cycle 46) was 1.541 and the “Fluorescence raw data” value ([2]; cycle 47) was 1.582. For the same compound, the “Fluorescence raw data” value ([2]; cycle 48) was 1.512, the “Fluorescence raw data” value ([2]; cycle 49) was 1.526 and the “Fluorescence raw data” value ([2]; cycle 50) was 1.558. For the same compound, the “Fluorescence raw data” value ([2]; cycle 51) was 1.588, the “Fluorescence raw data” value ([2]; cycle 52) was 1.552 and the “Fluorescence raw data” value ([2]; cycle 53) was 1.539. The “Fluorescence raw data” value ([2]; cycle 54) was 1.526, the “Fluorescence raw data” value ([2]; cycle 55) was 1.533 and the “Fluorescence raw data” value ([2]; cycle 56) was 1.535. For the same compound, the “Fluorescence raw data” value ([2]; cycle 57) was 1.531, the “Fluorescence raw data” value ([2]; cycle 58) was 1.528 and the “Fluorescence raw data” value ([2]; cycle 59) was 1.542. The “Fluorescence raw data” value ([2]; cycle 60) was 1.532, the “Fluorescence raw data” value ([2]; cycle 61) was 1.533 and the “Fluorescence raw data” value ([3]; cycle 1, + glucose) was 1.92. The “Fluorescence raw data” value ([3]; cycle 1, without glucose) was 1.976, the “Fluorescence raw data” value ([3]; cycle 2, + glucose) was 1.923 and the “Fluorescence raw data” value ([3]; cycle 2, without glucose) was 1.9392. For the same compound, the “Fluorescence raw data” value ([3]; cycle 3, + glucose) was 1.838, the “Fluorescence raw data” value ([3]; cycle 3, without glucose) was 1.884 and the “Fluorescence raw data” value ([3]; cycle 4, + glucose) was 1.837. The “Fluorescence raw data” value ([3]; cycle 4, without glucose) was 1.887, the “Fluorescence raw data” value ([3]; cycle 5, + glucose) was 1.792 and the “Fluorescence raw data” value ([3]; cycle 5, without glucose) was 1.777. The “Fluorescence raw data” value ([3]; cycle 6, + glucose) was 1.728, the “Fluorescence raw data” value ([3]; cycle 6, without glucose) was 1.786 and the “Fluorescence raw data” value ([3]; cycle 7, + glucose) was 1.71. For the same compound, the “Fluorescence raw data” value ([3]; cycle 7, without glucose) was 1.721, the “Fluorescence raw data” value ([3]; cycle 8, + glucose) was 1.698 and the “Fluorescence raw data” value ([3]; cycle 8, without glucose) was 1.722. For the same compound, the “Fluorescence raw data” value ([3]; cycle 9, + glucose) was 1.721, the “Fluorescence raw data” value ([3]; cycle 9, without glucose) was 1.668 and the “Fluorescence raw data” value ([3]; cycle 10, + glucose) was 1.665. The “Fluorescence raw data” value ([3]; cycle 10, without glucose) was 1.676, the “Fluorescence raw data” value ([3]; cycle 11, + glucose) was 1.65 and the “Fluorescence raw data” value ([3]; cycle 11, without glucose) was 1.675. For the same compound, the “Fluorescence raw data” value ([3]; cycle 12, + glucose) was 1.6461, the “Fluorescence raw data” value ([3]; cycle 12, without glucose) was 1.631 and the “Fluorescence raw data” value ([3]; cycle 13, + glucose) was 1.606. For the same compound, the “Fluorescence raw data” value ([3]; cycle 13, without glucose) was 1.632, the “Fluorescence raw data” value ([3]; cycle 14, + glucose) was 1.605 and the “Fluorescence raw data” value ([3]; cycle 14, without glucose) was 1.566. The “Fluorescence raw data” value ([3]; cycle 15, + glucose) was 1.592, the “Fluorescence raw data” value ([3]; cycle 15, without glucose) was 1.586 and the “Fluorescence raw data” value ([3]; cycle 16, + glucose) was 1.581. For the same compound, the “Fluorescence raw data” value ([3]; cycle 16, without glucose) was 1.5794, the “Fluorescence raw data” value ([3]; cycle 17, + glucose) was 1.665 and the “Fluorescence raw data” value ([3]; cycle 17, without glucose) was 1.55. The “Fluorescence raw data” value ([3]; cycle 18, + glucose) was 1.591, the “Fluorescence raw data” value ([3]; cycle 18, without glucose) was 1.5743 and the “Fluorescence raw data” value ([3]; cycle 19, + glucose) was 1.5963. The “Fluorescence raw data” value ([3]; cycle 19, without glucose) was 1.567 and the “Fluorescence raw data” value ([3]; cycle 20, + glucose) was 1.545.
